Measured data: PubChem BioAssay AID1508588 (Peter MacCallum Cancer Centre, 2020)
Test: 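Which gene losses make BRAF-mutant melanoma cells more responsive to vemurafenib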 (primary screen). Cells: human WM266.4 melanoma cells (BRAF V600 mutant). Reagents: siRNA pool against human genes, 40 nM. Duration: 96 h from transfection to read-out. Treatment: vemurafenib 300 nM (about IC25), added 48 h after transfection, for 48 h; comparison arm got DMSO vehicle only. Measurement: 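Ratios to non-targeting siRNA for cell gain, counted as DAPI nuclei after minus before drug and averaged over two replicates, and for absorbance-read medium lactate per cell; both binned into fold-change classes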. Direction: cell gain with vemurafenib: higher = more cell gain than with non-targeting siRNA; lactate per cell with vemurafenib: higher = more lactate made per cell. Active means: 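Enhancement is called by pairing each knock-down's vehicle-arm and drug-arm fold-change classes for viability or glycolysis; which class combinations qualify is not given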. Calls: active = enhances vemurafenib effect; inactive = no enhancement seen.
The whole screen tested about 18,000 reagents; shown is a part drawn at random. 790 of all reagents (4.4%) count as active. 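Calls rest on a combination of fold-change classes in drug and vehicle arms, not all shown here.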

cell gain with vemurafenib | lactate per cell with vemurafenib | activity call | Gene
-0.01 | 2.3 | inactive | GIGYF2
0.5 | 0.94 | inactive | PATE2
0.88 | 0.57 | inactive | NSUN5
0.94 | 0.84 | inactive | MKNK1
0.37 | 1.09 | inactive | NIPAL1
0.84 | 1 | inactive | ASB17
0.71 | 0.73 | inactive | DIO2
0.32 | 0.92 | inactive | TLR3
1.04 | 0.77 | inactive | CHD2
0.78 | 0.26 | inactive | OR52E2
0.77 | 0.85 | inactive | SART3

Records listed so far whose target name begins with N or n (2):
cell gain with vemurafenib | lactate per cell with vemurafenib | activity call | Gene
0.88 | 0.57 | inactive | NSUN5
0.37 | 1.09 | inactive | NIPAL1

Continued:
cell gain with vemurafenib | lactate per cell with vemurafenib | activity call | Gene
0.12 | 1.01 | inactive | ZNF317
0.06 | 0.9 | inactive | APOBEC3A
0.45 | 1.84 | inactive | PDGFD
0.6 | 0.82 | inactive | RAB24
0.78 | 0.41 | inactive | SCUBE2
0.78 | 0.5 | inactive | RFX7
0.53 | 0.85 | inactive | FZR1
0.98 | 0.92 | inactive | PTH2R
0.51 | 0.9 | inactive | TEF
0.76 | 0.62 | inactive | B4GALT6
0.52 | 1.13 | inactive | CACNG5
-0.09 | 4.06 | inactive | KIF26B
0.97 | 1.06 | inactive | KCNG3
0.47 | 1.06 | inactive | SLC22A7
1.01 | 0.96 | inactive | NEK5
0.77 | 0.48 | active | MAPK13
0.17 | 2.63 | inactive | TMEM107
0.67 | 0.48 | active | KCNA4
1.08 | 0.92 | inactive | RHD
1 | 0.84 | inactive | AADAT
0.48 | 0.7 | inactive | TNNT1
0.87 | 0.67 | inactive | BDH2
0.79 | 0.9 | inactive | PLIN4
